Assay results: patent publication US12558371B2, “Chondroitin sulfate polysaccharide, and semi-synthetic preparation method therefor and use thereof” (Institute of Materia Medica, Chinese Academy of Medical …, priority 2019, dated 2026)
At least one compound was matched to its structure with a doubt left.

Tested on: papain-induced OA models
Test: Papain-induced OA rat model
Format: in vivo, SD rats
Settings: positive drug celecoxib, dose not given

Cc1ccc(-c2cc(C(F)(F)F)nn2-c2ccc(S(N)(=O)=O)cc2)cc1 [Positive drug, celecoxib]
CT image of the knee joint, bone destruction and erosion (in words): less bone destruction and erosion than the model group
